Data reported in paper PMC10449909.
No constants are given. Whether binding was seen depends on the method and setting. For some assays here: In cells and extracts the contact can be indirect. Some entries that bind do so weakly or less than the wild type.

T1: receptor-interacting protein kinase 1 (RIPK1), mouse (mouse (endogenous in L929 and MDF)), Q60855
T1 chain: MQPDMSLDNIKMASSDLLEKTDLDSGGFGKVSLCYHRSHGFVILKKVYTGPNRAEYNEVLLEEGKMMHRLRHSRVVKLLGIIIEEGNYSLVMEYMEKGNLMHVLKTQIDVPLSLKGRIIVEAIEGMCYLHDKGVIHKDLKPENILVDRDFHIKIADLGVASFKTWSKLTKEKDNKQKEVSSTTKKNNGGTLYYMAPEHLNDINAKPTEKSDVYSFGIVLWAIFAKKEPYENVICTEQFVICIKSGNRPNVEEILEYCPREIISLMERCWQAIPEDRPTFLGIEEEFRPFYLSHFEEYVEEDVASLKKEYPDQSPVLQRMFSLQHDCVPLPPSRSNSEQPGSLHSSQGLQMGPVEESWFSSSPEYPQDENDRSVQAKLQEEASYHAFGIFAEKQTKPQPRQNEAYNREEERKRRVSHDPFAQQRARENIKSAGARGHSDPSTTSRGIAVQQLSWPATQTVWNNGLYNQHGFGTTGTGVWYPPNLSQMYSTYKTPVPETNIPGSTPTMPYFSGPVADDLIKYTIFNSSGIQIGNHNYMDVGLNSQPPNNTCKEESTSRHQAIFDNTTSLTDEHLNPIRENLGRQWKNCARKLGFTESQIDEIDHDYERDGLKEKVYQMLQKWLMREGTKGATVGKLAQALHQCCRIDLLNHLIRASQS


How the values were obtained:
[1] = target: T1, receptor-interacting protein kinase 1 …; test: co-IP; endogenous RIPK1 immunoprecipitated with anti-RIPK1 antibody (overnight, 4 °C; Protein A/G agarose) from RIPA lysates of L929, MDF or HT29 cells after necroptosis induction, cells pretreated with DMSO, Vemurafenib or Nec-1; RIPK3 detected by western blot; details: remark: other sources report otherwise
[2] = target: mixed lineage kinase domain-like (MLKL), mouse (mouse (endogenous in L929 and MDF)) (UniProt Q9D2Y4); test: non-reducing SDS-PAGE and immunoblot; L929, MDF or HT29 cells after necroptosis induction (pretreated with DMSO, Vemurafenib or Nec-1) lysed with non-reducing sample buffer; RIPK3 and MLKL oligomers detected by immunoblotting

Binder | binding [1] | binding [2]
receptor-interacting protein kinase 3 (RIPK3), mouse, Q9QZL0 1-486 (protein) MSSVKLWPTGASAVPLVSREELKKLEFVGKGGFGVVFRAHHRTWNHDVAVKIVNSKKISWEVKAMVNLRNENVLLLLGVTEDLQWDFVSGQALVTRFMENGSLAGLLQPECPRPWPLLCRLLQEVVLGMCYLHSLNPPLLHRDLKPSNILLDPELHAKLADFGLSTFQGGSQSGSGSGSGSRDSGGTLAYLDPELLFDVNLKASKASDVYSFGILVWAVLAGREAELVDKTSLIRETVCDRQSRPPLTELPPGSPETPGLEKLKELMIHCWGSQSENRPSFQDCEPKTNEVYNLVKDKVDAAVSEVKHYLSQHRSSGRNLSAREPSQRGTEMDCPRETMVSKMLDRLHLEEPSGPVPGKCPERQAQDTSVGPATPARTSSDPVAGTPQIPHTLPFRGTTPGPVFTETPGPHPQRNQGDGRHGTPWYPWTPPNPMTGPPALVFNNCSEVQIGNYNSLVAPPRTTASSSAKYDQAQFGRGRGWQPFHK | binds | –
mixed lineage kinase domain-like (MLKL), mouse (protein, UniProt Q9D2Y4 1-472) MDKLGQIIKLGQLIYEQCEKMKYCRKQCQRLGNRVHGLLQPLQRLQAQGKKNLPDDITAALGRFDEVLKEANQQIEKFSKKSHIWKFVSVGNDKILFHEVNEKLRDVWEELLLLLQVYHWNTVSDVSQPASWQQEDRQDAEEDGNENMKVILMQLQISVEEINKTLKQCSLKPTQEIPQDLQIKEIPKEHLGPPWTKLKTSKMSTIYRGEYHRSPVTIKVFNNPQAESVGIVRFTFNDEIKTMKKFDSPNILRIFGICIDQTVKPPEFSIVMEYCELGTLRELLDREKDLTMSVRSLLVLRAARGLYRLHHSETLHRNISSSSFLVAGGYQVKLAGFELSKTQNSISRTAKSTKAERSSSTIYVSPERLKNPFCLYDIKAEIYSFGIVLWEIATGKIPFEGCDSKKIRELVAEDKKQEPVGQDCPELLREIINECRAHEPSQRPSVDGRSLSGRERILERLSAVEESTDKKV | – | binds
